In the assay the target is T1, tyrosyl-tRNA synthetase, wild type, recombinant Xpress-6xHis tagged (His-YARS1^WT) (human) (UniProt P54577).
T1 sequence: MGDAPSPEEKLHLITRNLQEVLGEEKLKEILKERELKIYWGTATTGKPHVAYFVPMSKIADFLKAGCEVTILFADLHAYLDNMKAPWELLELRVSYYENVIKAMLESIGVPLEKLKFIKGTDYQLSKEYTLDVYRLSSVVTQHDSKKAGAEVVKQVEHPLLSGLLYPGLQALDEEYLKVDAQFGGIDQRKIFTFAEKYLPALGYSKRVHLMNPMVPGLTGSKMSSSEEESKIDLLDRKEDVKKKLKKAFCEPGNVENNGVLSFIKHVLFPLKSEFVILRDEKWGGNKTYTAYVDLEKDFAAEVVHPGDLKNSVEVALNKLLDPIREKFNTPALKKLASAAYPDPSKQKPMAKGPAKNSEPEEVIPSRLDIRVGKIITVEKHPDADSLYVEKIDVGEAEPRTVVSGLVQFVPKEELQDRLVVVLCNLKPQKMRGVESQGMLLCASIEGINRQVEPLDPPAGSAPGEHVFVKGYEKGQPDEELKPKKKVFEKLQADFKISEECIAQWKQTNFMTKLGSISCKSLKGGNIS
Briefly: pull-down; recombinant His-YARS1 preincubated individually with GST-PLS3 or α-actinin and magnetic Dynabeads, 20 min at room temperature; 50 mM NaP pH 8.0, 300 mM NaCl, 0.01% Tween-20; four washes; imidazole elution; SDS-PAGE, Coomassie; both purified.

No constants are given. Whether binding was seen depends on the method and setting. Tags and fused reporters may be left off the sequences shown.

Take α-actinin (Cytoskeleton): the binding result is listed as “no binding”.
